PubChem BioAssay AID602196 – INSERM | 2012
The deposit covers about 23,000 reagents; this is an unselected part. Over the whole deposit, 455 (2%) were called active. 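Active includes both protection and sensitisation; some change values fall well beyond the stated -50 to +50 range.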 Reagent sequences are not shown. The record does not give: the amount of reagent.

Aim: 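Modifiers of cisplatin sensitivity in A549 cells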
Cells: human A549 lung cancer cells
Reagents: siRNA pair against human genes
Timing: 48 h transfection before cisplatin; time from cisplatin to read-out not stated
Conditions: cisplatin at a dose killing half of control-siRNA cells; exact dose and duration not given
Measured: 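Shift in cisplatin death relative to control siRNA, from -50 (all cells die) to +50 (no cells die); siRNAs harmful on their own scored 0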
Direction: two-siRNA summed score (-2 to +2): higher = both siRNAs protect from cisplatin killing; -2 means both sensitise; mean protection from cisplatin (shift in death) and protection from cisplatin (shift in death), siRNA C and protection from cisplatin (shift in death), siRNA D: higher = protection from cisplatin killing
Hit rule: 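Each siRNA scores 0 if harmful alone by LDH or WST-1, otherwise +1 if it reduces and -1 if it increases cisplatin killing; a gene is active when both siRNAs agree (sum +2 or -2)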
Meaning of the calls: active = both siRNAs shift cisplatin killing the same way; inactive = no consistent shift, or siRNA harmful alone

gene	PubChem SID	two-siRNA summed score (-2 to +2)	mean protection from cisplatin (shift in death) (%)	protection from cisplatin (shift in death), siRNA C (%)	protection from cisplatin (shift in death), siRNA D (%)	outcome
KIAA2025	SID131506267	0	-1.8	7.9	-11.5	inactive
CLCA2	SID131507662	0	0.1	11.1	-10.8	inactive
COCH	SID131523003	2	16.4	19.2	13.7	active
ZNF764	SID131508218	0	0.8	7.1	-5.5	inactive
C9orf72	SID131515090	0	8.6	13.3	4	inactive
CD247	SID131501911	-1	-6.6	7.7	-20.9	inactive
TEX13B	SID131509569	0	2.3	-15.6	20.1	inactive
LOC441305	SID131516396	0	10.8	26.1	-4.6	inactive
QDPR	SID131509278	0	2	-10.3	14.3	inactive
KMT2B	SID131503928	0	-7.1	-4.7	-9.5	inactive
ADGRD1	SID131512663	0	5.7	11	0.5	inactive
NTNG2	SID131508410	0	1	-3.1	5.1	inactive
P2RY1	SID131501239	-1	-11.2	-7	-15.4	inactive
LOC389342	SID131518770	0	26.8	25.9	27.7	inactive
SNRNP48	SID131508375	0	1	-2.8	4.7	inactive
SACK1F	SID131521346	1	13.1	6.3	19.8	inactive
LRRC14	SID131504427	0	-5.4	-8.4	-2.5	inactive
IDH3G	SID131503531	0	-9.4	-7	-11.7	inactive
ALKBH6	SID131510862	0	3.7	-4.2	11.6	inactive
MCOLN1	SID131500568	-1	-21.1	-30.6	-11.7	inactive
NUDT8	SID131512020	0	5	-2.3	12.4	inactive
GPR179	SID131502775	-1	9.8	-10.9	30.5	inactive
CCZ1	SID131517867	0	15.1	17.2	13	inactive
NDUFS7	SID131513442	0	6.6	0.8	12.4	inactive
LOC390604	SID131514445	0	7.8	9.4	6.2	inactive
RHEBL1	SID131506921	0	-0.8	8	-9.6	inactive
LOC150739	SID131518179	0	17.1	13.5	20.7	inactive
LOC441395	SID131512164	0	5.2	5.5	4.8	inactive
MTIF2	SID131519207	1	3.7	-3	10.4	inactive
HACD1	SID131508060	0	0.6	7.1	-5.9	inactive
DNAH3	SID131502347	-1	-3.2	-15.1	8.6	inactive
LOC440194	SID131519548	1	6.2	13.3	-0.8	inactive
TIPE2	SID131512834	0	5.9	11.4	0.4	inactive
UNC45B	SID131518096	0	16.5	11.7	21.3	inactive
FAM170A	SID131504094	0	-6.5	-6.5	-6.6	inactive
MAP4K2	SID131519025	1	1.1	-10.1	12.4	inactive
LOC440668	SID131516124	0	10.3	22.1	-1.5	inactive
MMAB	SID131510356	0	3.2	1.8	4.5	inactive

Reagents listed so far called active, once more:
gene	PubChem SID	two-siRNA summed score (-2 to +2)	mean protection from cisplatin (shift in death) (%)	protection from cisplatin (shift in death), siRNA C (%)	protection from cisplatin (shift in death), siRNA D (%)	outcome
COCH	SID131523003	2	16.4	19.2	13.7	active

Next entries follow:
gene	PubChem SID	two-siRNA summed score (-2 to +2)	mean protection from cisplatin (shift in death) (%)	protection from cisplatin (shift in death), siRNA C (%)	protection from cisplatin (shift in death), siRNA D (%)	outcome
TRIM48	SID131518751	0	26	17.7	34.2	inactive
STON1	SID131507980	0	0.5	5.9	-4.9	inactive
PHF10	SID131511906	0	4.9	-0.9	10.7	inactive
BICRAL	SID131515626	0	9.4	9.8	9.1	inactive
MAMDC4	SID131504213	0	-6.1	10.5	-22.7	inactive
SNX22	SID131500886	-1	-14.7	-1.9	-27.5	inactive
CD244	SID131500437	-1	-31.2	-39.1	-23.3	inactive
LOC390349	SID131518846	0	31.7	63.9	-0.6	inactive
NR5A2	SID131502580	-1	-0.6	-9.9	8.8	inactive
TAL1	SID131520511	1	10.1	4.5	15.8	inactive
HDLBP	SID131523189	2	24.4	32.8	16	active
LOC388617	SID131504444	0	-5.4	-11.2	0.4	inactive
CIAO2B	SID131506143	0	-2	-2.3	-1.6	inactive
NLGN3	SID131506991	0	-0.7	-12.5	11.1	inactive
DEGS2	SID131508077	0	0.6	-2.4	3.6	inactive
ENTREP1	SID131513893	0	7.1	4.5	9.8	inactive
WNK4	SID131500977	-1	-13.7	-13.9	-13.5	inactive
CENPK	SID131511562	0	4.5	7.6	1.4	inactive
SIM2	SID131504381	0	-5.6	-23.3	12.2	inactive
